# From PMC10654507, “A cleavable chimeric peptide with targeting and killing domains enhances LPS neutralization and antibacterial properties against multi-drug resistant E. coli” (Communications Biology, 2023)
# Residues, ends and D or L forms follow the SMILES beside them.
# Assay: CD analysis of secondary structure
# Type: physicochemical
# Conditions: for α-Helix, percentage of secondary structure: 25 °C, CDNN; for α-helical content: range over SDS (5 ~ 40 mM) and 50% TFE buffer
Compound,"α-Helix, percentage of secondary structure (5 mM SDS) [%]","α-Helix, percentage of secondary structure (20 mM SDS) [%]","α-Helix, percentage of secondary structure (40 mM SDS) [%]","α-Helix, percentage of secondary structure (50% TFE) [%]","α-Helix, percentage of secondary structure (H2O) [%]",α-helical content
CSCC[C@H](NC(=O)[C@H](CCCNC(=N)N)NC(=O)[C@H](Cc1c[nH]c2ccccc12)NC(=O)[C@H](C)NC(=O)[C@H](Cc1c[nH]c2ccccc12)NC(=O)[C@H](CCCNC(=N)N)NC(=O)[C@H](Cc1c[nH]c2ccccc12)NC(=O)[C@H](C)NC(=O)[C@H](CCCCN)NC(=O)[C@@H](N)Cc1ccccc1)C(=O)N[C@@H](CCCCN)C(=O)N[C@@H](CCCCN)C(=O)N[C@@H](CC(C)C)C(=O)N[C@@H](C)C(=O)N[C@@H](C)C(=O)N1CCC[C@H]1C(=O)N[C@@H](CO)C(=O)O [L7] (H-FKAWRWAWRMKKLAAPS-OH),32.0,10.2,10.1,13.9,4.8,10.1 ~ 32.0%
CSCC[C@H](NC(=O)[C@H](CCCNC(=N)N)NC(=O)[C@H](Cc1c[nH]c2ccccc12)NC(=O)[C@H](C)NC(=O)[C@H](Cc1c[nH]c2ccccc12)NC(=O)[C@H](CCCNC(=N)N)NC(=O)[C@H](Cc1c[nH]c2ccccc12)NC(=O)[C@H](C)NC(=O)[C@H](CCCCN)NC(=O)[C@H](Cc1ccccc1)NC(=O)[C@H](CCCNC(=N)N)NC(=O)[C@H](CCCNC(=N)N)NC(=O)[C@H](CCCCN)NC(=O)[C@H](CCCNC(=N)N)NC(=O)[C@H](CCCCN)NC(=O)[C@H](Cc1ccccc1)NC(=O)[C@H](Cc1ccccc1)NC(=O)[C@H](CO)NC(=O)[C@H](C)NC(=O)[C@H](CCCNC(=N)N)NC(=O)[C@@H](NC(=O)[C@H](CCCCN)NC(=O)[C@H](Cc1c[nH]c2ccccc12)NC(=O)[C@H](CCCNC(=N)N)NC(=O)CNC(=O)[C@H](CCC(N)=O)NC(=O)[C@@H](NC(=O)[C@@H](N)CCCNC(=N)N)C(C)C)C(C)C)C(=O)N[C@@H](CCCCN)C(=O)N[C@@H](CCCCN)C(=O)N[C@@H](CC(C)C)C(=O)N[C@@H](C)C(=O)N[C@@H](C)C(=O)N1CCC[C@H]1C(=O)N[C@@H](CO)C(=O)O [R7] (H-RVQGRWKVRASFFKRKRRFKAWRWAWRMKKLAAPS-OH),35.4,22.9,23.5,50.4,3.5,22.9 ~ 50.4%
